According to publication PMC5436826, “The PET and LIM1-2 domains of testin contribute to intramolecular and homodimeric interactions” (PLoS ONE, 2017):
These are yes or no findings as the source states them, for the method shown. Binding seen in cells or lysates may run through a third protein. A yes stands for co-enrichment or nearness to the bait. Other partners may have been found. For some assays here: Where a sequence is shown, tags or fusion partners need not be part of it.

Tests used:
[1] = target: T1, ΔPET-GFP (human) (UniProt Q9UGI8); experiment: affinity purification with mass spectrometry; complexes affinity purified with a GFP-nanobody from lysates of HeLa cells expressing GFP-fused testin variants as bait; tryptic digests; PRIDE PXD005058
T1 sequence: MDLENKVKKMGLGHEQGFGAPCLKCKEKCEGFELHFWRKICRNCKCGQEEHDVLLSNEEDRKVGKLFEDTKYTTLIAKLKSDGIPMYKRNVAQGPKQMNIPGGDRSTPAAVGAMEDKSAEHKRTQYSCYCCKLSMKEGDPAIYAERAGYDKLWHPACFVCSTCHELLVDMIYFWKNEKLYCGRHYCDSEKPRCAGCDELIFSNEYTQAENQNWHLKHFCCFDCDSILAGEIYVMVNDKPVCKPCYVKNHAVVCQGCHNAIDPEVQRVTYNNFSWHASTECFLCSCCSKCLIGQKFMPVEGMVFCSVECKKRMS

[2] = target: LIM1-3-GFP (human); experiment: as above

binding [1]: binds
binding [2]: binds
B1: untagged recombinant full length (FL) testin (natural protein, human, UniProt Q9UGI8-1 1-421, looked up)
chain: MDLENKVKKMGLGHEQGFGAPCLKCKEKCEGFELHFWRKICRNCKCGQEEHDVLLSNEEDRKVGKLFEDTKYTTLIAKLKSDGIPMYKRNVMILTNPVAAKKNVSINTVTYEWAPPVQNQALARQYMQMLPKEKQPVAGSEGAQYRKKQLAKQLPAHDQDPSKCHELSPREVKEMEQFVKKYKSEALGVGDVKLPCEMDAQGPKQMNIPGGDRSTPAAVGAMEDKSAEHKRTQYSCYCCKLSMKEGDPAIYAERAGYDKLWHPACFVCSTCHELLVDMIYFWKNEKLYCGRHYCDSEKPRCAGCDELIFSNEYTQAENQNWHLKHFCCFDCDSILAGEIYVMVNDKPVCKPCYVKNHAVVCQGCHNAIDPEVQRVTYNNFSWHASTECFLCSCCSKCLIGQKFMPVEGMVFCSVECKKRMS
notes: testin, human, full length protein (residues 1-421), isoform 1 NP_056456.1; From pGEX-2TK; thrombin site between GST and FL; By SEC it is in a monomer-dimer equilibrium; also called non-tagged recombinant FL; source: E. coli BL21(DE3) pLYSstar, purified on glutathione sepharose as GST-FL, GST removed with thrombin
